# Counter-ions that a name gives are not always drawn. This is one part of the list. Many values rest on one well or one pass, so single values are uncertain.
# What was measured:
# Test in all cases: reduction in cell viability relative to untreated/vehicle; higher = more growth inhibition
# Conditions in all cases: 200 nM; 72 h
# [1] = test system: M229P (parental melanoma line)
# [2] = test system: M229R (matched melanoma line resistant to BRAF inhibitors)
# [3] = test system: M238P (parental melanoma line)
# [4] = test system: M238R (matched melanoma line resistant to BRAF inhibitors)
# [5] = test system: M249P (parental melanoma line)
# [6] = test system: M249R (matched melanoma line resistant to BRAF inhibitors)
# [7] = test system: UACC62P (parental melanoma line)
# [8] = test system: UACC62R (matched melanoma line resistant to BRAF inhibitors)
SMILES,reduction in cell viability [1] [%],reduction in cell viability [2] [%],reduction in cell viability [3] [%],reduction in cell viability [4] [%],reduction in cell viability [5] [%],reduction in cell viability [6] [%],reduction in cell viability [7] [%],reduction in cell viability [8] [%]
Oc1nc(-c2ccc(C(F)(F)F)cc2)nc2c1CSCC2,< 0,< 0,< 0,< 0,< 0,< 0,7.94,< 0
CCOC(=O)[C@H](CCc1ccccc1)N[C@@H](C)C(=O)N1CCC[C@H]1C(=O)O [Enalapril maleate],< 0,< 0,< 0,< 0,< 0,< 0,< 0,< 0
CC1(C)O[C@@H]2C[C@H]3[C@@H]4CCC5=CC(=O)C=C[C@]5(C)[C@@]4(F)[C@@H](O)C[C@]3(C)[C@]2(C(=O)CO)O1 [Triamcinolone acetonide],< 0,< 0,< 0,< 0,< 0,< 0,< 0,< 0
CC(=O)Oc1ccccc1C(=O)O [Aspirin],< 0,< 0,< 0,< 0,< 0,< 0,< 0,< 0
Cc1ccc(NC(=O)c2cccc(N(C)C)c2)cc1NC(=O)c1ccc(O)cc1,0.31,< 0,< 0,< 0,< 0,17.6,1.66,< 0
CCCn1c(=O)c2nc(C34CC5CC(CC3C5)C4)[nH]c2n(CCC)c1=O [Rolofylline],< 0,< 0,< 0,< 0,< 0,< 0,2.47,< 0
O=C(Nc1nc2cccc(-c3ccc(CN4CCS(=O)(=O)CC4)cc3)n2n1)C1CC1,< 0,< 0,< 0,< 0,< 0,< 0,< 0,< 0
COc1cc2ncnc(Nc3cccc(Br)c3)c2cc1OC,< 0,< 0,< 0,< 0,< 0,< 0,< 0,< 0
C[C@H](NCc1ccc(OCc2cccc(F)c2)cc1)C(N)=O [Safinamide mesilate],< 0,< 0,< 0,< 0,< 0,< 0,8.92,< 0
COc1ccc(-c2c(-c3ccc(O)cc3O)n[nH]c2C)cc1,< 0,< 0,< 0,< 0,< 0,< 0,0.92,< 0
CN(C)CC(=O)N1CCC(c2ccc(NC(=O)c3ncc(C#N)[nH]3)c(C3=CCCCC3)c2)CC1,< 0,< 0,< 0,< 0,< 0,< 0,< 0,< 0
Cc1ccc(S(=O)(=O)OCC(=O)Nc2ccc(C(=O)O)c(O)c2)cc1,< 0,< 0,< 0,< 0,< 0,< 0,< 0,< 0
CO/N=C(\C(=O)N[C@@H]1C(=O)N2C(C(=O)OCOC(=O)C(C)(C)C)=C(/C=C\c3scnc3C)CS[C@H]12)c1csc(N)n1 [Cefditoren pivoxil],< 0,< 0,< 0,< 0,< 0,< 0,< 0,< 0
CCn1nnc2c(N3CCOCC3)nc(-c3ccc(NC(=O)Nc4ccc(C(=O)N5CCN(C)CC5)cc4)cc3)nc21,62.8,53,59.1,62.7,69.3,61.9,64.4,62.4
CCCc1nn(C)c2c(=O)[nH]c(-c3cc(S(=O)(=O)N4CCN(C)CC4)ccc3OCC)nc12 [Sildenafil citrate],5.32,< 0,< 0,< 0,< 0,< 0,< 0,< 0
COC(=O)N[C@H](C(=O)N1CCC[C@H]1c1ncc(-c2ccc(-c3ccc(-c4cnc([C@@H]5CCCN5C(=O)[C@@H](NC(=O)OC)C(C)C)[nH]4)cc3)cc2)[nH]1)C(C)C [Daclatasvir dihydrochloride],< 0,< 0,< 0,< 0,< 0,5.93,8.29,< 0
CCC(CC)CC1(C(=O)Nc2ccccc2SC(=O)C(C)C)CCCCC1 [Dalcetrapib],< 0,< 0,< 0,< 0,< 0,< 0,< 0,< 0
CC(=O)N(C)C1(c2ccccc2)CCN(CCC[C@]2(c3ccc(Cl)c(Cl)c3)CCCN(C(=O)c3ccccc3)C2)CC1 [Osanetant],< 0,< 0,< 0,< 0,< 0,< 0,< 0,< 0
C[C@H](CCC(=O)O)[C@H]1CC[C@H]2[C@@H]3[C@@H](O)C[C@@H]4C[C@H](O)CC[C@]4(C)[C@H]3CC[C@]12C [Ursodiol],< 0,< 0,< 0,< 0,< 0,< 0,< 0,< 0
CO[C@H]1O[C@@H]2O[C@@]3(C)CC[C@H]4[C@H](C)CC[C@@H]([C@H]1C)[C@@]24OO3 [Artemether],< 0,< 0,< 0,< 0,< 0,< 0,3.08,< 0
Clc1cccc(-c2nnnn2Cc2cccnc2)c1Cl,< 0,< 0,< 0,< 0,< 0,6.84,0.98,< 0

# Complete entries, looked up by structure:
# Oc1nc(-c2ccc(C(F)(F)F)cc2)nc2c1CSCC2 is listed as reduction in cell viability [1] [%]: < 0; reduction in cell viability [2] [%]: < 0; reduction in cell viability [3] [%]: < 0; reduction in cell viability [4] [%]: < 0; reduction in cell viability [5] [%]: < 0; reduction in cell viability [6] [%]: < 0; reduction in cell viability [7] [%]: 7.94; reduction in cell viability [8] [%]: < 0
# CCCc1nn(C)c2c(=O)[nH]c(-c3cc(S(=O)(=O)N4CCN(C)CC4)ccc3OCC)nc12 [Sildenafil citrate] is listed as reduction in cell viability [1] [%]: 5.32; reduction in cell viability [2] [%]: < 0; reduction in cell viability [3] [%]: < 0; reduction in cell viability [4] [%]: < 0; reduction in cell viability [5] [%]: < 0; reduction in cell viability [6] [%]: < 0; reduction in cell viability [7] [%]: < 0; reduction in cell viability [8] [%]: < 0

# Source: the supplement of paper PMC9015667
